Experimental data: US8933235B2, “Pyridinedione carboxamide inhibitors of endothelial lipase” (Bristol-Myers Squibb Company, priority 2011, dated 2015)
Some results were stated once for a whole list of compounds, not compound by compound. At least one structure is not confirmed: it was looked up by name or label, or the drawing left a doubt.

These compounds were tested against T1, endothelial lipase (EL) (Homo sapiens, UniProt Q9Y5X9) (assay: Endothelial lipase (EL) enzymatic assay with fluorescent substrate A10070 in DMPG vesicles). Settings: result in words.
T1 construct: Conditioned media obtained from HT-1080 cells, which were transformed by RAGE technology (Athersys) to overexpress endogenous EL; endogenous in cells; conditioned medium used as the enzyme source
T1 sequence (Q9Y5X9 21-500): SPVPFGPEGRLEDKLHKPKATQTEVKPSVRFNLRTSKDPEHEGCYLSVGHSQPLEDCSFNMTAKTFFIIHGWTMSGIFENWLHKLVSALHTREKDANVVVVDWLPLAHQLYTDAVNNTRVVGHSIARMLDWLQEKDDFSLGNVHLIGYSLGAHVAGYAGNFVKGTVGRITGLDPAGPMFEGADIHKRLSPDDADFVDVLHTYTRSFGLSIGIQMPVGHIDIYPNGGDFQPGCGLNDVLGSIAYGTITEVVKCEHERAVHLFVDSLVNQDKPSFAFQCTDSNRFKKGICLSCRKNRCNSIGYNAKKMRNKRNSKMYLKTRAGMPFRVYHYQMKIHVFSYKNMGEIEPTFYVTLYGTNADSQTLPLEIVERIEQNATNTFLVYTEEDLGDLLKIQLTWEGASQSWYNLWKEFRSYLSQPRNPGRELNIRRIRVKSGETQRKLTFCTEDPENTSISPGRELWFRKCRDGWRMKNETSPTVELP
Format: biochemical
`Cn1c(C(F)(F)F)cc(C(=O)NCCCOc2ccccc2[N+](=O)[O-])c(O)c1=O` [Example 96, 3-hydroxy-1-methyl-N-(3-(2-nitrophenoxy)propyl)-2-oxo-6-(trifluoromethyl)-1,2-dihydropyridine-4-carboxamide] was tested, and the EL inhibitory activity was “found having EL inhibitory activity”. In the case of `Cn1c(C(F)(F)F)cc(C(=O)NCCCc2ccc(Cl)c(Cl)c2)c(O)c1=O` [Example 82, N-(3-(3,4-dichlorophenyl)propyl)-3-hydroxy-1-methyl-2-oxo-6-(trifluoromethyl)-1,2-dihydropyridine-4-carboxamide], the EL inhibitory activity is reported as “found having EL inhibitory activity”. For `Cn1c(C(F)(F)F)cc(C(=O)NCCCOc2ccc(Cl)c(Cl)c2)c(O)c1=O` [Example 94, N-(3-(3,4-dichlorophenoxy)propyl)-3-hydroxy-1-methyl-2-oxo-6-(trifluoromethyl)-1,2-dihydropyridine-4-carboxamide], the EL inhibitory activity was “found having EL inhibitory activity”. In the case of `O=C(NCCCc1ccc(Cl)c(Cl)c1)c1ccn(C2CC2)c(=O)c1O` [Example 151, 1-cyclopropyl-N-(3-(3,4-dichlorophenyl)propyl)-3-hydroxy-2-oxo-1,2-dihydropyridine-4-carboxamide], the EL inhibitory activity is reported as “found having EL inhibitory activity”. In the case of `Cn1c(-c2cc(F)cc(C(F)(F)F)c2)cc(C(=O)NCCCOc2ccccc2Cl)c(O)c1=O` [Example 48, N-(3-(2-chlorophenoxy)propyl)-6-(3-fluoro-5-(trifluoromethyl)phenyl)-3-hydroxy-1-methyl-2-oxo-1,2-dihydropyridine-4-carboxamide], the EL inhibitory activity is reported as “found having EL inhibitory activity”. For `O=C(NCCCc1ccc(Cl)c(Cl)c1)c1ccn(-c2ccc(C(F)(F)F)cc2)c(=O)c1O` [Example 182, N-(3-(3,4-dichlorophenyl)propyl)-3-hydroxy-2-oxo-1-(4-(trifluoromethyl)phenyl)-1,2-dihydropyridine-4-carboxamide], the EL inhibitory activity was “found having EL inhibitory activity”. With `Cn1c(-c2cc(F)cc(C(F)(F)F)c2)cc(C(=O)NCCc2ccc(C(F)(F)F)cc2)c(O)c1=O` [Example 60, 6-(3-fluoro-5-(trifluoromethyl)phenyl)-3-hydroxy-1-methyl-2-oxo-N-(4-(trifluoromethyl)phenethyl)-1,2-dihydropyridine-4-carboxamide] the EL inhibitory activity was “found having EL inhibitory activity”. For `Cn1c(C(F)(F)F)cc(C(=O)NCCCOc2cccc([N+](=O)[O-])c2)c(O)c1=O` [Example 85, 3-hydroxy-1-methyl-N-(3-(3-nitrophenoxy)propyl)-2-oxo-6-(trifluoromethyl)-1,2-dihydropyridine-4-carboxamide], the EL inhibitory activity was “found having EL inhibitory activity”. In the case of `Cn1c(-c2cc(F)cc(C(F)(F)F)c2)cc(C(=O)NCCc2cccc(C(F)(F)F)c2)c(O)c1=O` [Example 56, 6-(3-fluoro-5-(trifluoromethyl)phenyl)-3-hydroxy-1-methyl-2-oxo-N-(3-(trifluoromethyl)phenethyl)-1,2-dihydropyridine-4-carboxamide], the EL inhibitory activity is reported as “found having EL inhibitory activity”. With `CC(CNC(=O)c1ccn(C)c(=O)c1O)Oc1ccc(F)cc1` (stereo not shown) [Example 137, N-(2-(4-fluorophenoxy)propyl)-3-hydroxy-1-methyl-2-oxo-1,2-dihydropyridine-4-carboxamide] the EL inhibitory activity was “found having EL inhibitory activity”. For `Cn1ccc(C(=O)NCCCOc2cccc3ccccc23)c(O)c1=O` [Example 148, 3-hydroxy-1-methyl-N-(3-(naphthalen-1-yloxy)propyl)-2-oxo-1,2-dihydropyridine-4-carboxamide], the EL inhibitory activity was “found having EL inhibitory activity”. With `Cn1ccc(C(=O)NCCCCOc2ccccc2)c(O)c1=O` [Example 130, 3-hydroxy-1-methyl-2-oxo-N-(4-phenoxybutyl)-1,2-dihydropyridine-4-carboxamide] the EL inhibitory activity was “found having EL inhibitory activity”. In the case of `C=CC(CCc1ccc(Cl)c(Cl)c1)NC(=O)c1ccn(C)c(=O)c1O` (single isomer, unassigned) [Example 122, N-(5-(3,4-dichlorophenyl)pent-1-en-3-yl)-3-hydroxy-1-methyl-2-oxo-1,2-dihydropyridine-4-carboxamide], the EL inhibitory activity is reported as “found having EL inhibitory activity”. `Cn1c(-c2cccc(C(N)=O)c2)cc(C(=O)NCCCc2ccc(Cl)c(Cl)c2)c(O)c1=O` [Example 34, 6-(3-carbamoylphenyl)-N-(3-(3,4-dichlorophenyl)propyl)-3-hydroxy-1-methyl-2-oxo-1,2-dihydropyridine-4-carboxamide] was tested, and the EL inhibitory activity was “found having EL inhibitory activity”. With `Cn1ccc(C(=O)NCCc2ccccc2Cl)c(O)c1=O` [Example 127, N-(2-chlorophenethyl)-3-hydroxy-1-methyl-2-oxo-1,2-dihydropyridine-4-carboxamide] the EL inhibitory activity was “found having EL inhibitory activity”. For `Cc1cccc(OCCCNC(=O)c2ccn(C)c(=O)c2O)c1` [Example 205, 3-hydroxy-1-methyl-2-oxo-N-(3-(m-tolyloxy)propyl)-1,2-dihydropyridine-4-carboxamide], the EL inhibitory activity was “found having EL inhibitory activity”. With `CC(Cc1ccc(Cl)cc1)NC(=O)c1cc(-c2cc(F)cc(C(F)(F)F)c2)n(C)c(=O)c1O` (stereo not shown) [Example 54, N-(1-(4-chlorophenyl)propan-2-yl)-6-(3-fluoro-5-(trifluoromethyl)phenyl)-3-hydroxy-1-methyl-2-oxo-1,2-dihydropyridine-4-carboxamide] the EL inhibitory activity was “found having EL inhibitory activity”. With `Cn1c(-c2cc(F)cc(C(F)(F)F)c2)cc(C(=O)NCCCOc2ccccc2[N+](=O)[O-])c(O)c1=O` [Example 81, 6-(3-fluoro-5-(trifluoromethyl)phenyl)-3-hydroxy-1-methyl-N-(3-(2-nitrophenoxy)propyl)-2-oxo-1,2-dihydropyridine-4-carboxamide] the EL inhibitory activity was “found having EL inhibitory activity”. `O=C(NCCCc1ccc(Cl)c(Cl)c1)c1ccn(CCc2ccccc2F)c(=O)c1O` [Example 170, N-(3-(3,4-dichlorophenyl)propyl)-1-(2-fluorophenethyl)-3-hydroxy-2-oxo-1,2-dihydropyridine-4-carboxamide] was tested, and the EL inhibitory activity was “found having EL inhibitory activity”. With `COc1ccc(CNc2c(C(=O)NCCCc3ccc(Cl)c(Cl)c3)ccn(C)c2=O)cc1` [Example 186, (3-(3,4-dichlorophenyl)propyl)-3-(4-methoxybenzylamino)-1-methyl-2-oxo-1,2-dihydropyridine-4-carboxamide] the EL inhibitory activity was “found having EL inhibitory activity”. `Cn1c(-c2cc(F)cc(C(F)(F)F)c2)cc(C(=O)NCCCOc2cccc(Cl)c2)c(O)c1=O` [Example 65, N-(3-(3-chlorophenoxy)propyl)-6-(3-fluoro-5-(trifluoromethyl)phenyl)-3-hydroxy-1-methyl-2-oxo-1,2-dihydropyridine-4-carboxamide] was tested, and the EL inhibitory activity was “found having EL inhibitory activity”. For `Cn1c(-c2cc(C(F)(F)F)cc(C(F)(F)F)c2)cc(C(=O)NCCCc2ccc(Cl)c(Cl)c2)c(O)c1=O` [Example 10, 6-(3,5-bis(trifluoromethyl)phenyl)-N-(3-(3,4-dichlorophenyl)propyl)-3-hydroxy-1-methyl-2-oxo-1,2-dihydropyridine-4-carboxamide], the EL inhibitory activity was “found having EL inhibitory activity”.
